Results are given in words; binding and its absence hold for the method and conditions named. In cells and extracts the contact can be indirect. Some results given as binding are weak or reduced against the parent protein; the word gives no strength.

Amino acid sequences for entries named in this document (tags omitted).
UniProt P25694: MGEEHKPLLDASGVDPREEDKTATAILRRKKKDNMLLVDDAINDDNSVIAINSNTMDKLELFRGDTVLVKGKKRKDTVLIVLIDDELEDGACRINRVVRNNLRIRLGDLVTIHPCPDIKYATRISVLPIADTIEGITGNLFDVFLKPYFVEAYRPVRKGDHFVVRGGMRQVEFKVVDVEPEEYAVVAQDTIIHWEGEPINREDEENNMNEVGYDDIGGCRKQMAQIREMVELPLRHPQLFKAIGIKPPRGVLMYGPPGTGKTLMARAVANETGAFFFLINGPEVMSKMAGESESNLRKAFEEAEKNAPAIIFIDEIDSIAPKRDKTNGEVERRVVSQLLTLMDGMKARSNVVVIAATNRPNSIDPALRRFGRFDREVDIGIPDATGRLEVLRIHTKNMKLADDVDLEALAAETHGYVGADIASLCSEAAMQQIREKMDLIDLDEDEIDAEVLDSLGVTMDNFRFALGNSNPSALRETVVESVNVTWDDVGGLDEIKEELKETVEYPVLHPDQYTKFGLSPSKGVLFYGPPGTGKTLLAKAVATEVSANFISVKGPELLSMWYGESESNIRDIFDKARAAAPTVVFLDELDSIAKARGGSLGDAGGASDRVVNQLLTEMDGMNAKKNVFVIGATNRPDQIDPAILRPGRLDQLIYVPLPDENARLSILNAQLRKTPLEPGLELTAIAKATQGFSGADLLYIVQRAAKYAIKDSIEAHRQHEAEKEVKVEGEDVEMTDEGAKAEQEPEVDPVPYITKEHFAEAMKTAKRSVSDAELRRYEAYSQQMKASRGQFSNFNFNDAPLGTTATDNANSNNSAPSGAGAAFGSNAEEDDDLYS

Holding throughout (assay): co-IP; yeast crude extract in RNP buffer (0.1 M HEPES pH 7.4, 100 mM NaCl, 0.1% NP-40) on anti-HA agarose beads, 4°C, 90 minutes; HA-Irc20 derivatives precipitated, Cdc48–3xMyc detected by anti-MYC western blot
Test [1] concerns the target T1, 3xHA-Irc20 (a.a. 1–386) (S. cerevisiae) (UniProt Q06554).
T1 sequence: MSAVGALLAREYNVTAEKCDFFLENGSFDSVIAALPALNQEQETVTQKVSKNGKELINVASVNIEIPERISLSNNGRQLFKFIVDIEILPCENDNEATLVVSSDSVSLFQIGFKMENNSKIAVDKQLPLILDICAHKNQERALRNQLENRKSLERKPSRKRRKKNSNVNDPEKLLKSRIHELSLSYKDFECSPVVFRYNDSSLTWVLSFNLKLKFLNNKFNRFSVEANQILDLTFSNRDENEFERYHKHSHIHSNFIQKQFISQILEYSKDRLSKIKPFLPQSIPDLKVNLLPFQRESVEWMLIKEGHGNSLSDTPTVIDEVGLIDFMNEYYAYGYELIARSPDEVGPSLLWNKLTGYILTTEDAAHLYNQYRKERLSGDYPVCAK

The target in test [2] is T2, 3xHA-Irc20 (a.a. 883–1033) (S. cerevisiae) (UniProt Q06554).
T2 sequence: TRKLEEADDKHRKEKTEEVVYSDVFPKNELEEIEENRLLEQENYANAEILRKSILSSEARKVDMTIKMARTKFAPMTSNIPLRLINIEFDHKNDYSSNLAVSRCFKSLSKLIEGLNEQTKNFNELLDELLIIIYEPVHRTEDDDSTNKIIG

The target in test [3] is 3xHA-Irc20-D534A, E535A ATPase mutant (S. cerevisiae) (UniProt Q06554).
Test [4] deals with T3, 3xHA-irc20 (Δ883–1033) (S. cerevisiae) (UniProt Q06554).
T3 sequence: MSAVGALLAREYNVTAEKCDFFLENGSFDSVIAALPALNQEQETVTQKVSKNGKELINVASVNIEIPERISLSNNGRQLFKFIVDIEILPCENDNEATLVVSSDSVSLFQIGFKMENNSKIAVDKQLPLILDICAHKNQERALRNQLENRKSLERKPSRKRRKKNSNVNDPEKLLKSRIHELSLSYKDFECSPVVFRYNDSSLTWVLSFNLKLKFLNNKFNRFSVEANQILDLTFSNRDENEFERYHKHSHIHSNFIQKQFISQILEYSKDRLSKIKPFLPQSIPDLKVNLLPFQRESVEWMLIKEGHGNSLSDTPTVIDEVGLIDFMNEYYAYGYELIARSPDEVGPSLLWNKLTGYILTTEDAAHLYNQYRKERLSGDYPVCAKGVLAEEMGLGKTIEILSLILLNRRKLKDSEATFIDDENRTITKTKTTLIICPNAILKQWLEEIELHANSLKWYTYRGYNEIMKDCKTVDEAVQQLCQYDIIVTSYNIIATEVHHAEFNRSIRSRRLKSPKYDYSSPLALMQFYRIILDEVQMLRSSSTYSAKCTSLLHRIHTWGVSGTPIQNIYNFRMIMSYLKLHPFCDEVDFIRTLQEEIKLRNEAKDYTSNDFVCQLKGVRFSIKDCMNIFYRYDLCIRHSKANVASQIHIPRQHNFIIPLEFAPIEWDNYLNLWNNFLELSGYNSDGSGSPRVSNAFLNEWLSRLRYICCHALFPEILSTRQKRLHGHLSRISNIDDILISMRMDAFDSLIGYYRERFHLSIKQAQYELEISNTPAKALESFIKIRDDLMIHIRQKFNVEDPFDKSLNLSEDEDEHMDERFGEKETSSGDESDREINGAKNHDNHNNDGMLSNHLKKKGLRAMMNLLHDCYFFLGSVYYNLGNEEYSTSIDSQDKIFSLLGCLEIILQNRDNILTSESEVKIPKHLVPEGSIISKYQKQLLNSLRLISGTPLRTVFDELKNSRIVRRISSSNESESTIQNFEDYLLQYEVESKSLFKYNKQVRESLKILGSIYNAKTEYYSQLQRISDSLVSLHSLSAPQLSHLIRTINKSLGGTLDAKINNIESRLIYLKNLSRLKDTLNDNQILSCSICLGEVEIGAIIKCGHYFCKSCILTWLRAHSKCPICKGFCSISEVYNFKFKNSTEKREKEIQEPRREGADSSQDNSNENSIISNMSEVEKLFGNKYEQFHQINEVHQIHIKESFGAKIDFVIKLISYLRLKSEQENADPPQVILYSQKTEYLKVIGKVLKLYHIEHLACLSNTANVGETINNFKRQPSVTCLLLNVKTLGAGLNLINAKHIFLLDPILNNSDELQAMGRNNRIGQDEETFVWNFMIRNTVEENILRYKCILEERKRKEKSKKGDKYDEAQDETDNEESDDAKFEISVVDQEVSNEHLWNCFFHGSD

Regarding Cdc48–3xMyc (from UniProt P25694 1-835), the binding result is given as “no binding” in test [1], “binds” in test [2], “binds” in test [3] and “binds” in test [4].

For the origin of these results see article PMC3796546.
